Measurements reported in publication PMC10238511.
No constants are given. Whether binding was seen depends on the method and setting. Binding seen in cells or lysates may run through a third protein. Some entries that bind do so weakly or less than the wild type.

Protein sequences, listed by entry. Tags and fused reporters are not part of them. Lines headed by an entry give the natural chain unless they say otherwise; changes in a name come on top. Chains listed by the source or under a name are the forms on record and can include a tag or linker. Residues count along the entry.
UniProt P22695, residues 15-453: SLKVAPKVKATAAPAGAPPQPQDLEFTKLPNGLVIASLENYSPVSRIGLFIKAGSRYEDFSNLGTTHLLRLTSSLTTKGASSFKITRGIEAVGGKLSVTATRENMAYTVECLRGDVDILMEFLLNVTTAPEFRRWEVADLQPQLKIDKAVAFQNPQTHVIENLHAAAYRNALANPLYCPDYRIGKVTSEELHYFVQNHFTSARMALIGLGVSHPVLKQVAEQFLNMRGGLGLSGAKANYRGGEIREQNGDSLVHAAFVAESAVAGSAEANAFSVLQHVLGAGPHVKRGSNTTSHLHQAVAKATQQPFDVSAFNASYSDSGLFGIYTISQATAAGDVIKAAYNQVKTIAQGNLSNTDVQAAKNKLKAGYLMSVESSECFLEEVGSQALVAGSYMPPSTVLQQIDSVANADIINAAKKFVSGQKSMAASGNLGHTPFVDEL
UniProt P00403: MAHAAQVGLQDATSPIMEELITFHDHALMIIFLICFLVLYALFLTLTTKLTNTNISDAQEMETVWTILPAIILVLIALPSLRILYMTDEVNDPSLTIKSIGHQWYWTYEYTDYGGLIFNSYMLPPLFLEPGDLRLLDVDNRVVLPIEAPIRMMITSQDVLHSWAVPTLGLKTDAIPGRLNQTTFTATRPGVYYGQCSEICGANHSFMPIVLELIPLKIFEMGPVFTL
FLAG-tag labeled SIM2s (SIM2s-FLAG) (Q14190-2, form named): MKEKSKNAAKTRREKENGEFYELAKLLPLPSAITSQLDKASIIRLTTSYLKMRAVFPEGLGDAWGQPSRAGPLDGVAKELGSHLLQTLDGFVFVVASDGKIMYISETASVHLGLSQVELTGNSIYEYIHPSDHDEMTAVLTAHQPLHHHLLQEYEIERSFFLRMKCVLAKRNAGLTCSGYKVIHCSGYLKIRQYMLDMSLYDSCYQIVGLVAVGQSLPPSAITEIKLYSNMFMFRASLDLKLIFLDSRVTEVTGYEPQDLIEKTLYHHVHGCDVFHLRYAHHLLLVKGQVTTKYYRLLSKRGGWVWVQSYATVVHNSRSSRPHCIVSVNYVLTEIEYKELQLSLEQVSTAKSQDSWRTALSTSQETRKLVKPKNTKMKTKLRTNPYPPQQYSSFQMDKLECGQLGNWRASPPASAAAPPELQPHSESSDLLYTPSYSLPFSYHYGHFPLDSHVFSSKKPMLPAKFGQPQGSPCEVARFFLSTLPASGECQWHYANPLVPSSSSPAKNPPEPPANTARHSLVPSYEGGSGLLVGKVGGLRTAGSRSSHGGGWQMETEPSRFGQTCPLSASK

How the values were obtained:
[1] = molecular target: UQCRC2 (Complex III subunit) (human (endogenous in SUM159)) (UniProt P22695); test: proximity ligation; Duolink in situ PLA on fixed, permeabilized pLPCX SIM2s-FLAG SUM159 cells; anti-FLAG with anti-UQCRC2, anti-MT-CO2 or anti-NDUFB10 antibodies; red puncta per cell against background
[2] = molecular target: MT-CO2 (Complex IV subunit) (human (endogenous in SUM159)) (UniProt P00403); test: as above

Question: Which results are given for “FLAG-tag labeled SIM2s (SIM2s-FLAG) (from UniProt Q14190-2 1-570)”?
Answer: binding [1]: binds; binding [2]: binds
